Source: PubChem BioAssay AID504804 (Drosophila RNAi Screening Center, 2011)

Test: 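Fly genes whose loss lessens doxorubicin-driven cell death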 (primary screen)
Cell system: Drosophila Kc cells
Reagent: long dsRNA against Drosophila genes, 0.5 µg dsRNA per well
Timing: 96 h (48 h knock-down, then 48 h drug)
Treatment: doxorubicin 5 µg/ml for 48 h, added 48 h after dsRNA
Read-out: 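Luminescent ATP counts per replicate, not normalised, reflecting viable cells after 48 h dsRNA knock-down followed by 48 h of 5 µg/ml doxorubicin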
Scale: raw ATP luminescence: higher = more viable cells, protection from doxorubicin
Hit rule: 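z-score of 2 or more over plate mean in both duplicates, retained only when retests and separate dsRNAs confirm the protection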
The screen tested about 19,000 reagents; this is a random part of those that have a named target and a result. Over the whole deposit, 47 (0.25%) were called active. 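Signals are raw, not normalised; exact z-scores behind calls not deposited; actives needed confirmation, so some wells reaching 2 SD are inactive.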

RasGAP1 [DRSC11172] | raw ATP luminescence, replicate 1 = 76463; raw ATP luminescence, replicate 2 = 73293; Call = inactive
LeuRS-m [DRSC08595] | raw ATP luminescence, replicate 1 = 39223; raw ATP luminescence, replicate 2 = 39753; Call = inactive
RhoGDI [DRSC10919] | raw ATP luminescence, replicate 1 = 21367; raw ATP luminescence, replicate 2 = 18640; Call = inactive
CG42471 [DRSC01210] | raw ATP luminescence, replicate 1 = 3.51e5; raw ATP luminescence, replicate 2 = 2.66e5; Call = inactive
mth [DRSC08725] | raw ATP luminescence, replicate 1 = 60913; raw ATP luminescence, replicate 2 = 70420; Call = inactive
CG42521 [DRSC10154] | raw ATP luminescence, replicate 1 = 69687; raw ATP luminescence, replicate 2 = 61240; Call = inactive
Or10a [DRSC20264] | raw ATP luminescence, replicate 1 = 2.92e5; raw ATP luminescence, replicate 2 = 2.77e5; Call = inactive
CG6432 [DRSC16039] | raw ATP luminescence, replicate 1 = 49483; raw ATP luminescence, replicate 2 = 53650; Call = inactive
ewg [DRSC18773] | raw ATP luminescence, replicate 1 = 56480; raw ATP luminescence, replicate 2 = 46350; Call = inactive
CG31019 [DRSC13994] | raw ATP luminescence, replicate 1 = 2.84e5; raw ATP luminescence, replicate 2 = 2.79e5; Call = inactive
Bet3 [DRSC10388] | raw ATP luminescence, replicate 1 = 84547; raw ATP luminescence, replicate 2 = 87093; Call = inactive
Arpc3B [DRSC20126] | raw ATP luminescence, replicate 1 = 2.11e5; raw ATP luminescence, replicate 2 = 1.65e5; Call = inactive
Cpr30B [DRSC02728] | raw ATP luminescence, replicate 1 = 45830; raw ATP luminescence, replicate 2 = 70233; Call = inactive
Claspin [DRSC08308] | raw ATP luminescence, replicate 1 = 2.55e5; raw ATP luminescence, replicate 2 = 2.54e5; Call = inactive
CG31087 [DRSC14253] | raw ATP luminescence, replicate 1 = 75280; raw ATP luminescence, replicate 2 = 61400; Call = inactive
CG8777 [DRSC07263] | raw ATP luminescence, replicate 1 = 67487; raw ATP luminescence, replicate 2 = 61750; Call = inactive
TBC1d7 [DRSC15985] | raw ATP luminescence, replicate 1 = 93740; raw ATP luminescence, replicate 2 = 64110; Call = inactive
Prdm13 [DRSC09970] | raw ATP luminescence, replicate 1 = 69583; raw ATP luminescence, replicate 2 = 99773; Call = inactive
LTV1 [DRSC05951] | raw ATP luminescence, replicate 1 = 61717; raw ATP luminescence, replicate 2 = 47837; Call = inactive
CG33769 [DRSC11716] | raw ATP luminescence, replicate 1 = 42567; raw ATP luminescence, replicate 2 = 31030; Call = inactive
CG12849 [DRSC04129] | raw ATP luminescence, replicate 1 = 43927; raw ATP luminescence, replicate 2 = 62870; Call = inactive
CG13042 [DRSC09923] | raw ATP luminescence, replicate 1 = 45967; raw ATP luminescence, replicate 2 = 36853; Call = inactive
CG7166 [DRSC11809] | raw ATP luminescence, replicate 1 = 58793; raw ATP luminescence, replicate 2 = 67307; Call = inactive
CG5050 [DRSC02807] | raw ATP luminescence, replicate 1 = 63290; raw ATP luminescence, replicate 2 = 72757; Call = inactive
DNaseII [DRSC16310] | raw ATP luminescence, replicate 1 = 39257; raw ATP luminescence, replicate 2 = 43930; Call = inactive
GstS1 [DRSC07436] | raw ATP luminescence, replicate 1 = 66983; raw ATP luminescence, replicate 2 = 70503; Call = inactive
bic [DRSC07584] | raw ATP luminescence, replicate 1 = 61530; raw ATP luminescence, replicate 2 = 53000; Call = inactive
gammaTub37C [DRSC03535] | raw ATP luminescence, replicate 1 = 85183; raw ATP luminescence, replicate 2 = 55530; Call = inactive
Mccc2 [DRSC04987] | raw ATP luminescence, replicate 1 = 39117; raw ATP luminescence, replicate 2 = 62530; Call = inactive
CG17739 [DRSC06689] | raw ATP luminescence, replicate 1 = 64687; raw ATP luminescence, replicate 2 = 53930; Call = inactive
HtrA2 [DRSC16425] | raw ATP luminescence, replicate 1 = 76510; raw ATP luminescence, replicate 2 = 83950; Call = inactive
Dysb [DRSC10730] | raw ATP luminescence, replicate 1 = 37243; raw ATP luminescence, replicate 2 = 25200; Call = inactive
gl [DRSC16957] | raw ATP luminescence, replicate 1 = 52640; raw ATP luminescence, replicate 2 = 75890; Call = inactive
CG32643 [DRSC18962] | raw ATP luminescence, replicate 1 = 2.00e5; raw ATP luminescence, replicate 2 = 2.15e5; Call = inactive
brv1 [DRSC11076] | raw ATP luminescence, replicate 1 = 70503; raw ATP luminescence, replicate 2 = 84177; Call = inactive
Gr28b [DRSC02291] | raw ATP luminescence, replicate 1 = 25523; raw ATP luminescence, replicate 2 = 33847; Call = inactive
Gr28b [DRSC02292] | raw ATP luminescence, replicate 1 = 26090; raw ATP luminescence, replicate 2 = 30577; Call = inactive
